Source: PubChem BioAssay AID445 (National Center for Advancing Translational Sciences (NCATS), 2006)
The list shows a part of the results. Shown are side measurements of this screen, not its main read-out; they come without a call. Most of these compounds were active or inconclusive in the main read-out, so they are no random draw. The note in brackets gives the kind of curve behind each potency; many fits are weak.

Assay: IkB Signaling
Conditions: ABC-DLBCL IkBa-CBG/CBR dual luciferase ratio (green luciferase fused to IkBa over red control in OCI-Ly3 lymphoma cells), 4 h
From the text: NIH Molecular Libraries Screening Centers Network [MLSCN]
NIH Chemical Genomics Center [NCGC]
Nuclear factor kappa-B (NF-kappa-B) plays an important role in normal B cell development and survival. Diffuse large B cell lymphoma (DLBCL) is the most commonly observed type of non-Hodgkin's lymphoma. Gene expression analysis has identified an activated B cell-like subtype of DLBCL (ABC-DLBCL) which expresses known NF-kappa-B target genes. […] However, targets upstream of IKK have been largely unexplored and so nodes upstream of IKK in the NF-kappa-B pathway remain untested due to the lack of chemical probes.
A cell-sensor assay for I-kappa-B-alpha stabilization was developed with NIH investigator Dr. R. Eric Davis in Dr. Louis M. Staudt's laboratory. The assay uses green (CBG68) and red (CBR) emitting beetle luciferases [Chroma-Glo(TM) developed by Promega Corp.] where the green luciferase is fused to I-kappa-B-alpha and the red luciferase is present in its native state. Both luciferase genes are stably present in the OCI-Ly3 human ABC DLBCL cell line, but their expression is under the control of tetracycline-inducible promoters. Following the addition of doxycycline to induce expression of the luciferases, the green luminescence in control cultures rises only slowly because the CBG fusion partner I-kappa-B-alpha is targeted by IKK activity for rapid degradation. In contrast, green luminescence rises rapidly in the presence of proteasome inhibitors or IKK inhibitors. The rise in red luminescence of CBR is not affected by proteasome or IKK inhibitors, and serves as normalization for cell number and nonspecific effects. Compounds were screened as a concentration-titration series that ranged from 57 uM to 0.7 nM.
NCGC Assay Protocol Summary:
Cells were seeded in 1536-well plates at 5000 cells/3ul in IMDM medium containing 0.5% FBS, w/o phenol red, L-glutamine, 25 mM HEPES, 3 mg/ml sodium bicarbonate. After centrifugation for 1 min. at 1000 rpm, 23 nl of compounds or DMSO were delivered to each well using a pin tool. Then 1ul 80ng/ml doxycycline was dispensed into white solid 1536-well plates and the plates were incubated at 37C/5% C02 in a cell incubator for 4 hrs. Then 4 ul Chroma-Glo luminescent substrate mix (Promega) was added to each well. The plate was incubated at R.T. for 10-15 min. The plates were measured on a ViewLux plate reader for green luminescence (540/20 nm filter) and red luminescence (618/8 nm filter). The green and red luminescent signals were corrected for red and green luminescence filter overlap using previously determined filter calibration constants (determined using the procedure outlined in the Promega Technical Manual). The %Activity was determined from the ratio of corrected green/red luminescent values. Green luminescent and ratio %Activity was determined by normalizing to the difference in signal between basal cells (0% Activity) and cells incubated with 10 uM of the proteasome inhibitor MG-132 (100% Activity). Red luminescent %Activity was normalized to the difference between red luminesence in basal cells (0%Activity) and zero luminescence (-100% Activity).
Concentration-response curves were fitted to the signals arising from the green luminescence (I-kappa-B-alpha-luciferase fusion; IkB-luc) and the red luminescence (unfused luciferase; luc) as well as the calculated ratio. The concentration-effect curves were then classified based on curve quality (r2), response magnitude and degree of measured activity. Compounds were then categorized based on their concentration-response curves for all three datasets (Ikb-luc, luc and ratio).
Keywords: IKK, I-kappa-B, IkB, IkBa, cytotoxicity, luminescence, MLSMR, MLSCN, NIH Roadmap, qHTS, NCGC

[1] = measured here: control luc red channel unless noted
[2] = measured here: IkB-luc green channel
[3] = measured here: control luc red channel

N#Cc1ccccc1NC(=O)c1ccc(-c2ccccc2Cl)o1
AC50 [1]: 7.94 µM [falling, full curve, poor fit]

CCCNC(=O)c1cc(-c2ccc(O)cc2)on1
AC50 [1]: 10 µM [falling, partial curve]

Cc1cnc(=O)[nH]c1SCC(=O)Nc1nc2ccccc2s1
AC50 [1]: 0.0251 µM [rising, partial curve]

COC(=O)Cn1cnc2c(nnn2Cc2ccc(Cl)cc2)c1=O
AC50 [1]: 12.6 µM [falling, partial curve]

CCc1ccc(C(=O)NC(Cc2c[nH]c3ccccc23)C(=O)OCC(=O)c2ccc(Br)cc2)cc1 (stereo not drawn)
AC50 [1]: 39.8 µM [falling, single point]

CCOC(=O)c1cnc2ccccc2c1Nc1cccc(OC)c1
AC50 [1]: 39.8 µM [falling, single point]

Cc1cc(-c2ccc(C)c(S(=O)(=O)Nc3cccc(C#N)c3)c2)on1
AC50 [1]: 31.6 µM [falling, single point]

COc1ccc(/C=C/C(=O)Nc2ccc(Cl)c(Cl)c2)cc1
AC50 [1]: 10 µM [falling, partial curve]

CCCCn1c(NC(=O)c2ccccc2)c(C#N)c2nc3ccccc3nc21
AC50 [1]: 3.98 µM [rising, single point] [measured here: IkB-luc green channel]

COc1ccc(OC)c(C2C(C#N)=C(N)Oc3c2c(C)nn3-c2cccc(Cl)c2)c1 (stereo not drawn)
AC50 [1]: 10 µM [falling, partial curve]

Fc1cccc(Cl)c1Cn1nnc2c(N3CCC4(CC3)OCCO4)ncnc21
AC50 [1]: 39.8 µM [falling, single point]

C=CCC(CC=C)(CNC(=O)C(=O)Nc1ccc(C(=O)OCC)cc1)c1ccccc1
AC50 [1]: 0.398 µM [rising, full curve]

COC(=O)c1ccccc1NC(=O)c1cc2c(-c3ccc(OC)c(OC)c3)nn(C)c2s1
AC50 [2]: 15.8 µM [rising, partial curve]
AC50 [3]: 25.1 µM [rising, partial curve]

Cc1ccc(NC(=O)C(Cc2ccccc2)n2cccc2)cc1C (stereo not drawn)
AC50 [1]: 39.8 µM [falling, single point]

Cc1ccc(-c2nc3ccccn3c2Nc2ccc3c(c2)OCO3)o1
AC50 [1]: 25.1 µM [falling, single point]

COc1ccc(-c2nn(-c3cccc([N+](=O)[O-])c3)c3c2cnc2cc4c(cc23)OCO4)cc1
AC50 [1]: 20 µM [rising, partial curve]

CCCN(C(=O)c1cc2c(s1)-c1c(C)cccc1OC2)c1ccc(OCC)cc1
AC50 [1]: 25.1 µM [falling, single point]

COc1ccc2[nH]c3c(=O)n(CCCCC(=O)N4CCC(C(N)=O)CC4)c(=S)[nH]c3c2c1
AC50 [1]: 15.8 µM [falling, partial curve]

CCSc1nnnn1-c1cccc(C(=O)O)c1
AC50 [1]: 0.0631 µM [rising, full curve, poor fit]

COc1ccc(C2c3[nH]c4ccc(OC)cc4c3CCN2C(=O)Nc2ccccc2)cc1 (stereo not drawn)
AC50 [1]: 7.94 µM [falling, partial curve]

Cc1ccc(NC(=O)Cn2cc(S(=O)(=O)c3ccccc3)c(=O)c3cc4c(cc32)OCO4)cc1
AC50 [1]: 2 µM [falling, full curve, poor fit]

Cc1ccc(CNC(=O)CSc2nc3n[nH]c(C)c3c(=N)n2-c2cccc(C)c2)cc1
AC50 [1]: 39.8 µM [falling, partial curve, poor fit]

CCOc1ccc(NC(=O)Cn2cc(S(=O)(=O)N3CCN(c4ccccc4F)CC3)c3ccccc3c2=O)cc1
AC50 [1]: 10 µM [falling, partial curve]

O=C(NCCc1csc2nc(-c3cccc(F)c3)nn12)c1ccc(Br)o1
AC50 [1]: 20 µM [falling, single point]

COc1ccc(N(CC(=O)N2CCN(c3ccc(F)cc3)CC2)S(=O)(=O)c2c(C)n[nH]c2C)cc1
AC50 [1]: 7.94 µM [falling, partial curve]

COc1cc(OC)cc(-c2cc3nc(C)c(CCC(=O)NC(C)CCc4ccco4)c(C)n3n2)c1 (stereo not drawn)
AC50 [1]: 10 µM [falling, partial curve]

CCCCNc1nc2c(c(=O)n(Cc3ccc(Cl)c(Cl)c3)c(=O)n2C)n1C
AC50 [1]: 15.8 µM [falling, partial curve]

Cc1ccc(CNC(=O)c2cccc(-n3cnc4cccnc43)c2)cc1
AC50 [1]: 31.6 µM [falling, single point]

CCOc1ccc2nc(NC(=O)CN3CCC(n4nnc5cc(F)ccc54)CC3)sc2c1
AC50 [1]: 10 µM [falling, partial curve]

CCc1ccc(NC(=O)CCNS(=O)(=O)c2ccc3c(c2)CCCC(=O)N3)cc1
AC50 [1]: 25.1 µM [falling, single point]

COc1cccc(C(=O)Nc2c3c(nn2-c2ccc(Cl)cc2)CS(=O)(=O)C3)c1
AC50 [1]: 12.6 µM [falling, partial curve]

COc1ccc(NC(=O)c2oc3ccc(S(=O)(=O)N(C)C4CCCCC4)cc3c2C)cc1
AC50 [1]: 15.8 µM [falling, partial curve]

Cc1nn(-c2ccccc2)c(C)c1C(=O)OCC(=O)N1CC(=O)Nc2ccccc21
AC50 [1]: 31.6 µM [falling, single point]

CCOC(=O)c1ccc(NC(=O)CSc2nc3c([nH]c4ccccc43)c(=O)n2C)cc1
AC50 [2]: 39.8 µM [rising, single point]
AC50 [3]: 0.631 µM [rising, full curve]

Cc1ccccc1-c1noc(-c2cc(-c3ccc(F)cc3)n[nH]2)n1
AC50 [1]: 0.0398 µM [falling, full curve]

CCCCc1nc2ccccc2n1CC(=O)N(COCC)c1c(C)cccc1CC
AC50 [1]: 25.1 µM [falling, single point]

Cc1cc(C)cc(NC(=O)C2CCN(S(=O)(=O)c3ccc4c(c3)oc(=O)n4C)CC2)c1
AC50 [1]: 10 µM [falling, partial curve]

Oc1cc2ccccc2cc1-c1n[nH]c(=S)o1
AC50 [1]: 20 µM [falling, partial curve]

COc1ccc(/C=C/C(=O)Nc2ccc3nc(N4CCCCC4)cc(C)c3c2)cc1OC
AC50 [1]: 15.8 µM [falling, partial curve]

CC(C)c1ccc(Nc2c(-c3ccco3)nc3ccccn23)cc1
AC50 [1]: 6.31 µM [falling, partial curve]

COc1cc(NC(=O)c2ccc(-n3cnc4cccnc43)cc2)cc(OC)c1
AC50 [1]: 2 µM [falling, full curve]

Cc1ccc(S(=O)(=O)N(CC(=O)Nc2ccc3c(c2)OCO3)c2ccc(C)c(Cl)c2)cc1
AC50 [1]: 3.16 µM [falling, full curve, poor fit]

CCOC(=O)c1ccc(NC(=O)c2ccc(C)c(S(=O)(=O)N3CCOCC3)c2)cc1
AC50 [1]: 2.51 µM [falling, full curve]

CC1CCN(C(=O)C2CCN(C(=O)c3cc4sccc4n3Cc3ccc(F)cc3)CC2)CC1
AC50 [1]: 15.8 µM [falling, partial curve]

Cc1cc(C)c(NC(=O)Cn2nnc(-c3nc(-c4ccccc4)no3)c2N)c(C)c1
AC50 [1]: 3.16 µM [falling, full curve]

O=C(Nc1ccc2c(c1)nc1n2CCSC1)c1ccco1
AC50 [1]: 3.98 µM [falling, full curve]

CCN(CC)c1ccc2cc(-c3nc(-c4cc(OC)c(OC)c(OC)c4)no3)c(=O)oc2c1
AC50 [1]: 31.6 µM [rising, partial curve]

COC(=O)c1ccccc1NC(=O)Cn1c(=O)n(CCCC(=O)NCc2ccccc2OC)c(=O)c2ccccc21
AC50 [1]: 7.94 µM [falling, partial curve]

CC(C)N(Cc1nc(-c2ccccc2)no1)C(=O)c1ccc(Cl)cc1
AC50 [1]: 25.1 µM [falling, single point]

CCOc1ccc(-n2nc(CO)c(C(=O)NCc3cccc(OC)c3)n2)cc1
AC50 [1]: 15.8 µM [falling, single point]

O=C(CCC1N=C2c3ccccc3N=C(SCc3ccc(F)cc3)N2C1=O)NC1CCCCC1 (stereo not drawn)
AC50 [1]: 3.98 µM [falling, single point]

Cc1ccc(-c2oc3ccccc3c(=O)c2O)cc1
AC50 [1]: 20 µM [rising, partial curve] [measured here: IkB-luc green channel]

COc1cc2cc(CNc3ccccc3)c(=O)n(CC(=O)Nc3cc(C)cc(C)c3)c2cc1OC
AC50 [1]: 12.6 µM [falling, single point]

Cc1ccc(-c2cc(C(F)(F)F)nn2-c2ccc(S(N)(=O)=O)cc2)cc1
AC50 [1]: 39.8 µM [falling, single point]

COc1ccccc1NC(=O)C1CCN(c2cnccn2)CC1
AC50 [1]: 25.1 µM [rising, single point]

CC(=O)N1CCCc2cc(S(=O)(=O)N3CCN(c4cccc(C(F)(F)F)c4)CC3)ccc21
AC50 [1]: 15.8 µM [falling, partial curve]

CCOc1ccc(NC(=O)Nc2ccc3c(c2)N(C)C(=O)CS3)cc1
AC50 [1]: 12.6 µM [falling, partial curve]

Cc1ccc(-n2nc(C)c3c(C(=O)O)cc(C)nc32)cc1
AC50 [1]: 10 µM [falling, partial curve]

CCOc1ccc(-c2cc(C(=O)NCCc3ccccc3)c3c(-c4ccc(C)cc4)[nH]nc3n2)cc1
AC50 [1]: 0.0631 µM [rising, full curve, poor fit]

Cc1ccc(Oc2nc3ccccn3c(=O)c2/C=C(\C#N)c2nc3ccccc3s2)c(C)c1
AC50 [1]: 7.94 µM [falling, single point]

CCN(CC)c1ccc(NS(=O)(=O)c2ccc(-c3coc(C)n3)cc2)c(C)c1
AC50 [1]: 15.8 µM [falling, partial curve]
